Experiment [1] concerns the target valosin containing protein (VCP)/p97 (mouse (endogenous in BMDMs)) (UniProt Q01853). As to the kind of experiment: co-IP; endogenous proteins in lysates of mouse BMDMs (WT or VCP-deficient), unstimulated or stimulated with ZymD for the indicated times; lysis in 50 mM Tris-HCl pH 7.4, 150 mM NaCl, 1% Triton X-100, 1 mM EDTA; IP with 2 ug antibody and protein A/G Plus-Agarose, 4°C, 12 h; immunoblot.

Sequences of proteins named here, by UniProt entry; tags and fusion partners are left off.
UniProt P29351: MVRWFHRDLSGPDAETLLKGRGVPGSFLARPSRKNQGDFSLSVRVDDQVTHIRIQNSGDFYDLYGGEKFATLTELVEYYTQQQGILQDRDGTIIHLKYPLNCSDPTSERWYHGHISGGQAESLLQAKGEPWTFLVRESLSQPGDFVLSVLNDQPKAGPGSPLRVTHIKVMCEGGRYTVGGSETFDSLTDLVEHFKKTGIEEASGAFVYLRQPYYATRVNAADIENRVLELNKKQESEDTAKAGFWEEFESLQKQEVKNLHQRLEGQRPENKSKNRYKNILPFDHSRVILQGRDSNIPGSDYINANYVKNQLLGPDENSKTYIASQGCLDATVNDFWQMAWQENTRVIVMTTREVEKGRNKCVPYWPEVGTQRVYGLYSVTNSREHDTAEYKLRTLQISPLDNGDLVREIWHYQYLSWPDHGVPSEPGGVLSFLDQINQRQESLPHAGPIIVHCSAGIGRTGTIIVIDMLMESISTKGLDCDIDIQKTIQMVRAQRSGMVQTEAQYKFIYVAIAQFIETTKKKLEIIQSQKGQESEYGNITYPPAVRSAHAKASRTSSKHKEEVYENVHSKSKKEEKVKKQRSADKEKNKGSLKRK
UniProt O08586: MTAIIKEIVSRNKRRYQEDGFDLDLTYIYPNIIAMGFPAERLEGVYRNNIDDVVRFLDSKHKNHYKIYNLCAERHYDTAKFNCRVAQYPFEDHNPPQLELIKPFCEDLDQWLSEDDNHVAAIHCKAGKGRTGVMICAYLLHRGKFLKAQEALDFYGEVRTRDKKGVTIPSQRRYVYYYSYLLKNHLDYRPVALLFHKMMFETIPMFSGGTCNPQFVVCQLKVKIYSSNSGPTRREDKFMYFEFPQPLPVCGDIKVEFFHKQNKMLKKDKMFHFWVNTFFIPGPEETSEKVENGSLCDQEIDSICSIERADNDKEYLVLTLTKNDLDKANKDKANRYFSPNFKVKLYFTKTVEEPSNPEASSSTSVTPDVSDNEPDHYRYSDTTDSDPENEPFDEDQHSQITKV

For experiment [2], the target named is Flag-tagged VCP (mouse) (UniProt Q01853). As to the kind of experiment: co-IP; tagged proteins co-transfected into HEK293T cells (36 h in the legends, 48 h in the text), with or without ZymD; IP by the tag (FLAG-M2 beads, anti-HA beads, anti-MYC, anti-V5); lysis in 50 mM Tris-HCl pH 7.4, 150 mM NaCl, 1% Triton X-100, 1 mM EDTA; immunoblot. Background: In western blotting, separated proteins are transferred to a membrane and probed.

The target in experiment [3] is valosin containing protein (VCP)/p97 (mouse (endogenous in BMDMs)) (UniProt Q01853). As to the kind of experiment: co-IP; endogenous proteins in lysates of mouse BMDMs (WT or VCP-deficient), unstimulated or stimulated with ZymD for the indicated times; lysis in 50 mM Tris-HCl pH 7.4, 150 mM NaCl, 1% Triton X-100, 1 mM EDTA; IP with 2 ug antibody and protein A/G Plus-Agarose, 4°C, 12 h; immunoblot. The source holds these as a separate data set.

For experiment [4], the target named is Flag-tagged VCP (mouse) (UniProt Q01853). As to the kind of experiment: co-IP; tagged proteins co-transfected into HEK293T cells (36 h in the legends, 48 h in the text), with or without ZymD; IP by the tag (FLAG-M2 beads, anti-HA beads, anti-MYC, anti-V5); lysis in 50 mM Tris-HCl pH 7.4, 150 mM NaCl, 1% Triton X-100, 1 mM EDTA; immunoblot. This is another data set of the same source.

Where two headings read alike, the source gives them in different places. No constants are given. Whether binding was seen depends on the method and setting. Binding seen in cells or lysates may run through a third protein. Some entries that bind do so weakly or less than the wild type. For part of these data: Tags and fused reporters may be left off the sequences shown.

With “tyrosine phosphatase SHP-1 (from UniProt P29351 1-595) (enzyme)”, in experiment [1], the binding entry is listed as “binds”. Turning to “V5-SHP-1 (from UniProt P29351 1-595) (enzyme)”, the binding entry with Flag-tagged VCP (mouse) [2] was “binds”. Consider “PTEN (from UniProt O08586 1-403) (enzyme)”, for which the binding entry in experiment [1] is given as “binds”.

B1: Dectin-1 (also known as CLEC7A) (receptor, UniProt Q6QLQ4 1-244)
chain: MKYHSHIENLDEDGYTQLDFSTQDIHKRPRGSEKGSQAPSSPWRPIAVGLGILCFVVVVVAAVLGALGEYGHNSGRNPEEKDNFLSRNKENHKPTESSLDEKVAPSKASQTTGGFSQPCLPNWIMHGKSCYLFSFSGNSWYGSKRHCSQLGAHLLKIDNSKEFEFIESQTSSHRINAFWIGLSRNQSEGPWFWEDGSAFFPNSFQVRNTAPQESLLHNCVWIHGSEVYNQICNTSSYSICEKEL
As for B1, the binding result in experiment [3] is listed as “binds”.

B2: HA-Dectin-1 (receptor, UniProt Q6QLQ4 1-244)
chain: MKYHSHIENLDEDGYTQLDFSTQDIHKRPRGSEKGSQAPSSPWRPIAVGLGILCFVVVVVAAVLGALGEYGHNSGRNPEEKDNFLSRNKENHKPTESSLDEKVAPSKASQTTGGFSQPCLPNWIMHGKSCYLFSFSGNSWYGSKRHCSQLGAHLLKIDNSKEFEFIESQTSSHRINAFWIGLSRNQSEGPWFWEDGSAFFPNSFQVRNTAPQESLLHNCVWIHGSEVYNQICNTSSYSICEKEL
Consider B2, for which the binding entry with Flag-tagged VCP (mouse) [4] was “binds”.

B3: SHIP1 (enzyme, UniProt Q9ES52 1-1191)
chain: MPAMVPGWNHGNITRSKAEELLSRAGKDGSFLVRASESIPRAYALCVLFRNCVYTYRILPNEDDKFTVQASEGVPMRFFTKLDQLIDFYKKENMGLVTHLQYPVPLEEEDAIDEAEEDTVESVMSPPELPPRNIPMSAGPSEAKDLPLATENPRAPEVTRLSLSETLFQRLQSMDTSGLPEEHLKAIQDYLSTQLLLDSDFLKTGSSNLPHLKKLMSLLCKELHGEVIRTLPSLESLQRLFDQQLSPGLRPRPQVPGEASPITMVAKLSQLTSLLSSIEDKVKSLLHEGSESTNRRSLIPPVTFEVKSESLGIPQKMHLKVDVESGKLIVKKSKDGSEDKFYSHKKILQLIKSQKFLNKLVILVETEKEKILRKEYVFADSKKREGFCQLLQQMKNKHSEQPEPDMITIFIGTWNMGNAPPPKKITSWFLSKGQGKTRDDSADYIPHDIYVIGTQEDPLGEKEWLELLRHSLQEVTSMTFKTVAIHTLWNIRIVVLAKPEHENRISHICTDNVKTGIANTLGNKGAVGVSFMFNGTSLGFVNSHLTSGSEKKLRRNQNYMNILRFLALGDKKLSPFNITHRFTHLFWLGDLNYRVELPTWEAEAIIQKIKQQQYSDLLAHDQLLLERKDQKVFLHFEEEEITFAPTYRFERLTRDKYAYTKQKATGMKYNLPSWCDRVLWKSYPLVHVVCQSYGSTSDIMTSDHSPVFATFEAGVTSQFVSKNGPGTVDSQGQIEFLACYATLKTKSQTKFYLEFHSSCLESFVKSQEGENEEGSEGELVVRFGETLPKLKPIISDPEYLLDQHILISIKSSDSDESYGEGCIALRLETTEAQHPIYTPLTHHGEMTGHFRGEIKLQTSQGKMREKLYDFVKTERDESSGMKCLKNLTSHDPMRQWEPSGRVPACGVSSLNEMINPNYIGMGPFGQPLHGKSTLSPDQQLTAWSYDQLPKDSSLGPGRGEGPPTPPSQPPLSPKKFSSSTANRGPCPRVQEARPGDLGKVEALLQEDLLLTKPEMFENPLYGSVSSFPKLVPRKEQESPKMLRKEPPPCPDPGISSPSIVLPKAQEVESVKGTSKQAPVPVLGPTPRIRSFTCSSSAEGRMTSGDKSQGKPKASASSQAPVPVKRPVKPSRSEMSQQTTPIPAPRPPLPVKSPAVLQLQHSKGRDYRDNTELPHHGKHRQEEGLLGRTAMQ
For the molecule B3, the binding result in experiment [3] was “binds”.

The values are drawn from paper PMC11548748.
